# Results from publication PMC4624681 (2015).
# Sequences of proteins named here, by UniProt entry; tags and fusion partners are left off. Residues count along the entry.
# UniProt Q8TDQ0, residues 22-124: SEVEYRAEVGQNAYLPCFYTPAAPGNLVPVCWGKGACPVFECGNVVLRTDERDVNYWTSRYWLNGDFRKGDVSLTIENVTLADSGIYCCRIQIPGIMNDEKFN
# No constants are given. Whether binding was seen depends on the method and setting.
# Legend:
# Assay in all cases: AUC; both purified
# [1] = target: Ig V domain of hTIM-3 (human) (UniProt Q8TDQ0)
# [2] = target: Ig V domain of human T-cell immunoglobulin and mucin domain protein 1 (hTIM-1) (human) (UniProt Q96D42)
# [3] = target: Ig V domain of hTIM-4 (human) (UniProt Q96H15)
molecule,measurement,setting,value
Ig V domain of hTIM-3 (from UniProt Q8TDQ0 22-124) (domain or fragment),binding,[1],no binding (tested: A280nm absorption of about 0.8)
"Ig V domain of human T-cell immunoglobulin and mucin domain protein 1 (hTIM-1) (domain or fragment, UniProt Q96D42 22-127) VKVGGEAGPSVTLPCHYSGAVTSMCWNRGSCSLFTCQNGIVWTNGTHVTYRKDTRYKLLGDLSRRDVSLTIENTAVSDSGVYCCRVEHRGWFNDMKITVSLEIVPP",binding,[2],no binding (tested: A280nm absorption of about 0.8)
"Ig V domain of hTIM-4 (domain or fragment, UniProt Q96H15 22-134) VTSETVVTEVLGHRVTLPCLYSSWSHNSNSMCWGKDQCPYSGCKEALIRTDGMRVTSRKSAKYRLQGTIPRGDVSLTILNPSESDSGVYCCRIEVPGWFNDVKINVRLNLQRA",binding,[3],no binding (tested: A280nm absorption of about 0.8)
